These results are taken from article PMC4745755.

These are yes or no findings as the source states them, for the method shown. Binding seen in cells or lysates may run through a third protein. A result given as binding can be weak or reduced; the word gives no strength.

The assay addresses α3β1 integrin (human (endogenous in glioblastoma cell lines)). As to the kind of experiment: co-IP; lysates of [^3H]-palmitate-labelled glioblastoma cell lines, lysed in 1% Brij-96 for 5 h at 4°C; immunoprecipitation with the indicated antibodies, radiographic detection of labelled proteins.

B1: Tetraspanin CD81 (protein, UniProt P60033 1-236)
chain: MGVEGCTKCIKYLLFVFNFVFWLAGGVILGVALWLRHDPQTTNLLYLELGDKPAPNTFYVGIYILIAVGAVMMFVGFLGCYGAIQESQCLLGTFFTCLVILFACEVAAGIWGFVNKDQIAKDVKQFYDQALQQAVVDDDANNAKAVVKTFHETLDCCGSSTLTALTTSVLKNNLCPSGSNIISNLFKEDCHQKIDDLFSGKLYLIGIAAIVVAVIMIFEMILSMVLCCGIRNSSVY
modifications: [^3H]-palmitate, metabolic labelling (residues not stated)
Consider B1, for which the binding result is on record as “binds”.

B2: Tetraspanin CD82 (protein, UniProt P27701 1-267)
chain: MGSACIKVTKYFLFLFNLIFFILGAVILGFGVWILADKSSFISVLQTSSSSLRMGAYVFIGVGAVTMLMGFLGCIGAVNEVRCLLGLYFAFLLLILIAQVTAGALFYFNMGKLKQEMGGIVTELIRDYNSSREDSLQDAWDYVQAQVKCCGWVSFYNWTDNAELMNRPEVTYPCSCEVKGEEDNSLSVRKGFCEAPGNRTQSGNHPEDWPVYQEGCMEKVQAWLQENLGIILGVGVGVAIIELLGMVLSICLCRHVHSEDYSKVPKY
modifications: [^3H]-palmitate, metabolic labelling (residues not stated)
As to B2, the binding entry is listed as “binds”.
